# Measurements from the supplement of paper PMC10849652.
# Protein sequences, listed by entry. Tags and fused reporters are not part of them. Lines headed by an entry give the natural chain unless they say otherwise; changes in a name come on top.
# UniProt Q00613: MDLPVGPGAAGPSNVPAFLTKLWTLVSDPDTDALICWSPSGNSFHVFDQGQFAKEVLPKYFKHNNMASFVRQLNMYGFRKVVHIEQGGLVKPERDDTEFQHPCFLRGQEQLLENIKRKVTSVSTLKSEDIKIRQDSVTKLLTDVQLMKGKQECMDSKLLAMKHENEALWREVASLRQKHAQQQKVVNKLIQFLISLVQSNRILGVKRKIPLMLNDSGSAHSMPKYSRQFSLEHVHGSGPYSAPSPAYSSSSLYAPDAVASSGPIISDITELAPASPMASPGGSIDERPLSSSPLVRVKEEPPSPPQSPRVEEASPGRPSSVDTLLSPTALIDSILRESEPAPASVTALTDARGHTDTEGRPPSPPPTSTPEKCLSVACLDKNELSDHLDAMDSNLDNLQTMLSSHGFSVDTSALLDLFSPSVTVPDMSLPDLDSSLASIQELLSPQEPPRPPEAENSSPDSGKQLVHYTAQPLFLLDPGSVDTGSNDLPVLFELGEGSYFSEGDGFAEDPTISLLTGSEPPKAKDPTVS
# UniProt Q92506: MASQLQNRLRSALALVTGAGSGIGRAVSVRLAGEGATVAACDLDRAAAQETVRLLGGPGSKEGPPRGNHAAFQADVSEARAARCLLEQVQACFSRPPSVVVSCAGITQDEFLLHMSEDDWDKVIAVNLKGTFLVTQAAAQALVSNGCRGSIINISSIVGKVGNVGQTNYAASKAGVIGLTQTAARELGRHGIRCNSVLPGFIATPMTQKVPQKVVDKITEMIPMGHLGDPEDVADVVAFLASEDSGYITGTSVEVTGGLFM
# UniProt P04035: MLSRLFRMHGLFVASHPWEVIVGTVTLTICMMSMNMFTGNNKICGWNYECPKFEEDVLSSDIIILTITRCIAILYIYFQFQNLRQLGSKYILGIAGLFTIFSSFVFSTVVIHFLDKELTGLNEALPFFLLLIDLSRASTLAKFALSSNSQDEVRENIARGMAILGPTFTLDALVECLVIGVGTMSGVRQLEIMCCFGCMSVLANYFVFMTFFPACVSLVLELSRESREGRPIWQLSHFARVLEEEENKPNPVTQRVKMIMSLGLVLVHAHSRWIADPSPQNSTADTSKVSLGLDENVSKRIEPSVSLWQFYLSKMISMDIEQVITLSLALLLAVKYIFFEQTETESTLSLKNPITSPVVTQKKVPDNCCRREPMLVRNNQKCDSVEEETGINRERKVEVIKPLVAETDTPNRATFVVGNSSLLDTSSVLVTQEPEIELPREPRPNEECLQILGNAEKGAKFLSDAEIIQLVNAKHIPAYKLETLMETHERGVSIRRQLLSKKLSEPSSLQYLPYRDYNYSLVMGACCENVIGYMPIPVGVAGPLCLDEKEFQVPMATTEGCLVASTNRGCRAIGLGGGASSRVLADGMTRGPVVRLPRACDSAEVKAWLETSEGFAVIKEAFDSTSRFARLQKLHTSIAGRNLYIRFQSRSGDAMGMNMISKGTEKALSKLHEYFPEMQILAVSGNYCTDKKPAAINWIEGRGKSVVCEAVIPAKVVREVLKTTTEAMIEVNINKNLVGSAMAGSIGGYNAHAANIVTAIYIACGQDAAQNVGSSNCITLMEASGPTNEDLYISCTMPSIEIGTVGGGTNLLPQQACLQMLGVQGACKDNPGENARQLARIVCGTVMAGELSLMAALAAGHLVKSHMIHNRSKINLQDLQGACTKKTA
# UniProt P82970: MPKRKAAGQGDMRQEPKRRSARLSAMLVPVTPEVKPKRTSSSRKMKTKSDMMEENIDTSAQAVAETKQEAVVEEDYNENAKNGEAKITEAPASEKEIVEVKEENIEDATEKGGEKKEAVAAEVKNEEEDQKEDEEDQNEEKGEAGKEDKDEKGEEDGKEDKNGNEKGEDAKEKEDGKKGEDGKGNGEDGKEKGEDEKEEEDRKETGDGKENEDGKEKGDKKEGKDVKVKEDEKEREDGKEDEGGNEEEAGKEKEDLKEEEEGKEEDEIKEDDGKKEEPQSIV
# UniProt Q9NX55: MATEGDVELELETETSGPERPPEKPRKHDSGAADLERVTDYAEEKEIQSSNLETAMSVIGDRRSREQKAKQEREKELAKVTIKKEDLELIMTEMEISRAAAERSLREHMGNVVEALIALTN
# UniProt O43719: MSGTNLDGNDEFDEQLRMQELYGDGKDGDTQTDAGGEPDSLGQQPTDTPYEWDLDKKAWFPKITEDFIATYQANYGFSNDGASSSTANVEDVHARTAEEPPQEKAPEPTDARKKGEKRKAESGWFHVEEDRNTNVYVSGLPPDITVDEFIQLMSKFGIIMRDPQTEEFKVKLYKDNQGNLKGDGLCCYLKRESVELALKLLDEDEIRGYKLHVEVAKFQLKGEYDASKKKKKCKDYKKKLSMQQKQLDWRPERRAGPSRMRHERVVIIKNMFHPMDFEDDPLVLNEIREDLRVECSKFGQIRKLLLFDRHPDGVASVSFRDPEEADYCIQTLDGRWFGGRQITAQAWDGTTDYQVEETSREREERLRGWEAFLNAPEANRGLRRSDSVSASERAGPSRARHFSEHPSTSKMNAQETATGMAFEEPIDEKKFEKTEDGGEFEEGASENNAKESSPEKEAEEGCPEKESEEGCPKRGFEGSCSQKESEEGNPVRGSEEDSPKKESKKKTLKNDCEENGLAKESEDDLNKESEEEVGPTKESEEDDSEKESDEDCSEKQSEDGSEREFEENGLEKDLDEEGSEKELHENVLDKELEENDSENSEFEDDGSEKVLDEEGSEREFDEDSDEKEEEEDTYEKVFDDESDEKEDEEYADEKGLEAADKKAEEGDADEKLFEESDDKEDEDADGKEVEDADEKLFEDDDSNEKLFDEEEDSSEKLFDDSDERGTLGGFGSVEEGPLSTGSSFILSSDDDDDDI
# UniProt P05114: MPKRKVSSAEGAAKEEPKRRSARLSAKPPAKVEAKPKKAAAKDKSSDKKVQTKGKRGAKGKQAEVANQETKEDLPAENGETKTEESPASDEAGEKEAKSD
# UniProt Q8TCT9: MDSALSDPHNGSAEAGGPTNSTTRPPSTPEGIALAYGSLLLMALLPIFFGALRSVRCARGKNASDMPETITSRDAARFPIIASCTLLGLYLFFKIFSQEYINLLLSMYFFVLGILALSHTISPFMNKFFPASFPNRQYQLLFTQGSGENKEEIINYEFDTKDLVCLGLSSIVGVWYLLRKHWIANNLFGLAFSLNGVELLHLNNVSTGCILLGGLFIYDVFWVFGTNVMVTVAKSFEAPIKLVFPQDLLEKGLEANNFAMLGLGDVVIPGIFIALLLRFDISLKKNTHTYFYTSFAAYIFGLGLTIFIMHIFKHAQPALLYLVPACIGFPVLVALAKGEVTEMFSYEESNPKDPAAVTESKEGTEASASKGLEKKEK
# UniProt Q13151: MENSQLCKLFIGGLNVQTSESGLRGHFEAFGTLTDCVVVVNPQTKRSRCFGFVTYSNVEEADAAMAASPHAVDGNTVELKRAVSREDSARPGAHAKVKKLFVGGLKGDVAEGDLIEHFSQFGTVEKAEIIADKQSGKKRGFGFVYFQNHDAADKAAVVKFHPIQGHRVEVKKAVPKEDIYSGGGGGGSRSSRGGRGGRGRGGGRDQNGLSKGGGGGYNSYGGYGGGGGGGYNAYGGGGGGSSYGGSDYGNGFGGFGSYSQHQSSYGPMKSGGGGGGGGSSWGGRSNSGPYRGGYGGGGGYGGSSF
# UniProt Q9NZL4: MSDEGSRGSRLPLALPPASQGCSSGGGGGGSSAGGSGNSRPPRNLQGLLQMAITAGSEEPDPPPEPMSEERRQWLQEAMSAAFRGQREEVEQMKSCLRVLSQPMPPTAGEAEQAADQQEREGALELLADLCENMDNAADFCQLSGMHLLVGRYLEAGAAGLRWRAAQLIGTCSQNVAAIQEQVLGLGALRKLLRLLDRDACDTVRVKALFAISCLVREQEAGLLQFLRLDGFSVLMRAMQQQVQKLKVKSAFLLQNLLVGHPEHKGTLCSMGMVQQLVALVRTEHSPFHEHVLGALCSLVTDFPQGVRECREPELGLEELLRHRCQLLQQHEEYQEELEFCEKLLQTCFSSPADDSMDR
# UniProt Q99729: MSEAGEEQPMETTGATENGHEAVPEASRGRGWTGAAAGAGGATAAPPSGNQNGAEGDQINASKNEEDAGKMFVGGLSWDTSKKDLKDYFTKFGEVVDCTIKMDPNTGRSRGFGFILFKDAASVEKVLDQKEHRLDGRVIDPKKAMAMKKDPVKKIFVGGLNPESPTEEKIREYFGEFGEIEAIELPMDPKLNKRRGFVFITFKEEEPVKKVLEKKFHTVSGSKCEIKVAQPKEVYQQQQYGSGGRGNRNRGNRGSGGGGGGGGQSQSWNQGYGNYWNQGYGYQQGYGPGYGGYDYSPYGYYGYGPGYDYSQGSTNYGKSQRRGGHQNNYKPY
# UniProt P07910: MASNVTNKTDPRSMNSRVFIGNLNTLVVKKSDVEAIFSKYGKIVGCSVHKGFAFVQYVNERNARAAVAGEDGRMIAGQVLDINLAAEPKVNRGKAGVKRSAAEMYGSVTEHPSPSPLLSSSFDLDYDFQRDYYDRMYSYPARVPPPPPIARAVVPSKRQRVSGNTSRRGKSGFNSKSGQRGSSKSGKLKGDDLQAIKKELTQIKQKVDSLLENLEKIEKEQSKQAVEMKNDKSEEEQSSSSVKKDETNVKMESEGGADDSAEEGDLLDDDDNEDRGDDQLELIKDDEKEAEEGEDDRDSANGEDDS
# UniProt P55795: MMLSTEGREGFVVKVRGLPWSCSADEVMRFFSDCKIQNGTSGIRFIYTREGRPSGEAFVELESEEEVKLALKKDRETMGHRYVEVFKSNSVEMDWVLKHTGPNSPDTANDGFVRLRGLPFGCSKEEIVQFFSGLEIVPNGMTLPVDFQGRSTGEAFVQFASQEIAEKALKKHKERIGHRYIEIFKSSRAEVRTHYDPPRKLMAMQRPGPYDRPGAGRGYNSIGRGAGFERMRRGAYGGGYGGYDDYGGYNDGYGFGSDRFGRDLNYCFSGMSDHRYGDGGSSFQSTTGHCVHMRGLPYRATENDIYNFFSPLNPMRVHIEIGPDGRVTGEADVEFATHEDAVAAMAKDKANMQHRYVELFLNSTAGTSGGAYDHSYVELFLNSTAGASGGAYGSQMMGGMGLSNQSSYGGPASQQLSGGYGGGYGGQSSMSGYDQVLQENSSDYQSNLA
# UniProt Q9BUP3: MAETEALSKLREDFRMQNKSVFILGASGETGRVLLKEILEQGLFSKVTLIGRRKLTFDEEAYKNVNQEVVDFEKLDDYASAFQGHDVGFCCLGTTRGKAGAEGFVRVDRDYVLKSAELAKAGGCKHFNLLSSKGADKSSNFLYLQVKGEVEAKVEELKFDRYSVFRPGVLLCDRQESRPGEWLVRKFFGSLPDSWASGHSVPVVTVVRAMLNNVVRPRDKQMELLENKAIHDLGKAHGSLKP
# UniProt P14866: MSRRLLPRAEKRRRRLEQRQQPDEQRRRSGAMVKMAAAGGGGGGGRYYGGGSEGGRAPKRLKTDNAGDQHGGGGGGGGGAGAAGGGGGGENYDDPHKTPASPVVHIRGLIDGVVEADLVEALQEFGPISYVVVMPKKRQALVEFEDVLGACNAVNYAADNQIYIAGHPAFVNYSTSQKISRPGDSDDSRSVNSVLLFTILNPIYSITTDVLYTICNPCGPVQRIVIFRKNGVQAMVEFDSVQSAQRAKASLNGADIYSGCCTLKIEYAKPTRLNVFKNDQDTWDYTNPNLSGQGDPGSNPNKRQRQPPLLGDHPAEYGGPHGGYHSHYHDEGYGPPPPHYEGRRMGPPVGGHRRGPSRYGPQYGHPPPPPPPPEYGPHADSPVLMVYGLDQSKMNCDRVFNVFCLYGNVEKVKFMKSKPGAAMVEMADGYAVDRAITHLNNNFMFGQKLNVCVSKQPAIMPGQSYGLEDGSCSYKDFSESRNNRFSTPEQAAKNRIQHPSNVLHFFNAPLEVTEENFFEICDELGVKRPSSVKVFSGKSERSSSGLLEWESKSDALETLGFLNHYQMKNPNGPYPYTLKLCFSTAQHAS
# UniProt O60725, whole entry, looked up: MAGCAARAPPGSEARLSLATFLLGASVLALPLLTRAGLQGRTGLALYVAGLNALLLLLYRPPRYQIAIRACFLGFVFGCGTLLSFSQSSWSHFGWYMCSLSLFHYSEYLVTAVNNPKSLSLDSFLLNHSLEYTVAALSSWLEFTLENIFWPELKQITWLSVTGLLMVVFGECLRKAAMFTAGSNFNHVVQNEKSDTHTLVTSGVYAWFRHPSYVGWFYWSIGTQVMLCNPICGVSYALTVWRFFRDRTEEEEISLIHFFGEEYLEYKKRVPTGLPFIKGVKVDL
# UniProt Q96FZ2: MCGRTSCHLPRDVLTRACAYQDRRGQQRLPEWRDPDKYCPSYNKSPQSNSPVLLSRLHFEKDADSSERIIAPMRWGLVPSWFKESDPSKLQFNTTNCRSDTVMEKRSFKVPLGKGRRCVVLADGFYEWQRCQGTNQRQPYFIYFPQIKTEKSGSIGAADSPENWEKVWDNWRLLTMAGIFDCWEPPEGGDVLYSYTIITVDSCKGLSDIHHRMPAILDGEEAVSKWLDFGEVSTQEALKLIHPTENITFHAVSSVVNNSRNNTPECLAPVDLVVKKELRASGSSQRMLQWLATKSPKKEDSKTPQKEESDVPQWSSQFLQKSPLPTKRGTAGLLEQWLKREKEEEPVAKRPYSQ
# Some of the results follow.
# Tests used:
# Assay in all cases: log2 fold change, soluble protein after heating vs DMSO (PISA); higher = thermal stabilisation; K562 cells, 10 uM, 30 min; active = over 0.2 and 3.5 SD of the protein, either way, in both replicates (recomputed)
# [1] = compound: NC(=O)Nc1cc(-c2cccc(F)c2)sc1C(=O)N[C@H]1CCCNC1
# Method in brief: (§1)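 K562 cells at 2×10^6 cells/mL were exposed to 10 μM compound for 30 min, then aliquots were heated for 3 min across 48°C-58°C, pooled, and extracted in PBS containing 0.5% NP-40 at 4°C. The supernatant after 21,000xg for 90 min was taken as soluble protein and measured by TMTpro 16plex LC-MS/MS with channel sums equalised. Thermal stability is reported relative to control samples, with values from duplicates. Fold changes are given on a log2 scale.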
# [2] = compound: NC(=O)c1cnc(N[C@@H]2CCCC[C@@H]2N)nc1Nc1cccc(-n2nccn2)c1
# Method in brief: as §1
# [3] = compound: NC1(c2ccc(-c3nc4ccn5c(=O)[nH]nc5c4cc3-c3ccccc3)cc2)CCC1
# Method in brief: as §1
# [4] = compound: NCC(=O)Nc1ccc(-n2nc(C(F)(F)F)cc2-c2ccc3c(ccc4ccccc43)c2)cc1
# Method in brief: as §1
# [5] = compound: Nc1ccccc1NC(=O)c1ccc(CNC(=O)OCc2cccnc2)cc1 [entinostat]
# Method in brief: as §1
# [6] = compound: O=C(CCCCCCC(=O)Nc1ccccc1)NO [vorinostat]
# Method in brief: as §1
# [7] = compound: O=C(CCCCCCNC(=O)c1cnc(N(c2ccccc2)c2ccccc2Cl)nc1)NO [citarinostat]
# Method in brief: as §1
# [8] = compound: O=C(O)c1ccc2c(c1)nc(Nc1cccc(Cl)c1)c1ccncc12 [silmitasertib]
# Method in brief: as §1
# [9] = compound: O=C1NC(=O)C(c2cnc3ccccn23)=C1c1cn2c3c(cc(F)cc13)CN(C(=O)N1CCCCC1)CC2
# Method in brief: as §1
# [10] = compound: c1cc(OCCN2CCCCC2)cc(-c2n[nH]c3ccc(-c4nnc[nH]4)cc23)c1
# Method in brief: as §1
Target,log2 fold change [1],log2 fold change [2],log2 fold change [3],log2 fold change [4],log2 fold change [5],log2 fold change [6],log2 fold change [7],log2 fold change [8],log2 fold change [9],log2 fold change [10]
HKDC1 (UniProt Q2TB90),inactive: 0.008,inactive: -0.053,inactive: -0.116,inactive: -0.011,inactive: 0.044,inactive: 0.008,inactive: 0.108,inactive: 0.043,inactive: -0.037,inactive: -0.011
HNRNPUL1 (UniProt Q9BUJ2),inactive: -0.059,inactive: 0.028,inactive: -0.081,inactive: -0.059,inactive: -0.012,inactive: 0.03,inactive: 0.002,inactive: 0.034,inactive: 0.08,inactive: -0.046
HSF1 (UniProt Q00613),inactive: 0.031,inactive: -0.154,inactive: -0.169,inactive: -0.013,inactive: 0.177,inactive: 0.332,inactive: 0.184,inactive: 0.075,inactive: -0.173,inactive: -0.016
HSD17B8 (UniProt Q92506),inactive: 0.023,inactive: -0.002,inactive: -0.008,inactive: 0.03,inactive: 0.012,inactive: 0.003,inactive: 0.001,inactive: -0.005,inactive: 0.044,inactive: 0.046
HMGCR isoform 3 (UniProt P04035),inactive: 0.184,inactive: -0.115,inactive: 0.048,inactive: -0.022,inactive: 0.082,inactive: -0.019,inactive: -0.175,inactive: -0.08,inactive: 0.15,inactive: 0.081
HMOX2 (UniProt P30519),inactive: -0.022,inactive: -0.028,inactive: -0.094,inactive: -0.026,inactive: 0.018,inactive: 0.029,inactive: 0.023,inactive: 0,inactive: 0.013,inactive: -0.03
HSD17B4 (UniProt P51659),inactive: -0.033,inactive: -0.048,inactive: -0.009,inactive: -0.002,inactive: -0.021,inactive: -0.07,inactive: 0.006,inactive: 0.021,inactive: -0.066,inactive: -0.01
HMGN5 (UniProt P82970),inactive: 0.037,inactive: 0.145,inactive: 0.039,inactive: -0.054,inactive: -0.031,inactive: -0.019,inactive: 0.016,inactive: -0.015,inactive: -0.022,inactive: 0.04
"HYOU1, A0A494C039",inactive: -0.09,inactive: 0.137,inactive: 0.037,inactive: 0.052,inactive: 0.032,inactive: 0.078,inactive: 0.042,inactive: 0.101,inactive: 0.026,inactive: -0.201
HYPK (UniProt Q9NX55),inactive: -0.006,inactive: -0.014,inactive: 0.058,inactive: 0.04,inactive: 0.052,inactive: -0.023,inactive: 0.014,inactive: -0.081,inactive: -0.054,inactive: 0.033
HTATSF1 (UniProt O43719),inactive: 0.024,inactive: -0.156,inactive: -0.213,inactive: -0.081,inactive: 0.104,inactive: 0.087,inactive: 0.106,inactive: 0.09,inactive: -0.083,inactive: 0.009
HMGN1 (UniProt P05114),inactive: 0,inactive: 0.024,inactive: 0.144,inactive: 0.03,inactive: -0.053,inactive: -0.048,inactive: -0.096,inactive: 0.037,inactive: -0.003,inactive: -0.023
HM13 isoform 2 (UniProt Q8TCT9),inactive: 0.034,inactive: -0.032,inactive: -0.061,inactive: -0.035,inactive: 0.013,inactive: -0.044,inactive: -0.002,inactive: 0.026,inactive: -0.051,inactive: -0.073
HNRNPA0 (UniProt Q13151),inactive: 0.08,inactive: 0.042,inactive: 0.224,inactive: -0.03,inactive: 0.029,inactive: -0.034,inactive: -0.004,inactive: 0.099,inactive: 0.079,inactive: 0.077
HSPBP1 isoform 3 (UniProt Q9NZL4),inactive: 0.003,inactive: -0.002,inactive: -0.152,inactive: -0.016,inactive: 0.021,inactive: 0.006,inactive: 0.044,inactive: 0.074,inactive: 0.039,inactive: -0.031
HNRNPAB isoform 3 (UniProt Q99729),inactive: -0.028,inactive: 0.034,inactive: 0.246,inactive: 0.073,inactive: -0.059,inactive: -0.058,inactive: -0.077,inactive: 0.14,inactive: 0.188,inactive: -0.095
HNRNPC isoform 2 (UniProt P07910),inactive: -0.032,inactive: -0.049,inactive: 0.568,inactive: -0.037,inactive: 0.148,inactive: -0.041,inactive: -0.062,inactive: 0.199,inactive: 0.104,inactive: -0.252
HSD17B11 (UniProt Q8NBQ5),inactive: -0.038,inactive: -0.013,inactive: -0.072,inactive: -0.007,inactive: -0.009,inactive: -0.046,inactive: 0.079,inactive: -0.013,inactive: -0.009,inactive: -0.014
HNRNPH2 (UniProt P55795),inactive: -0.073,inactive: -0.03,inactive: -0.124,inactive: -0.077,inactive: 0.016,inactive: 0.114,inactive: 0.06,inactive: 0.031,inactive: -0.007,inactive: -0.086
HUS1 (UniProt O60921),inactive: -0.021,inactive: 0.022,inactive: -0.092,inactive: 0.031,inactive: -0.014,inactive: 0.026,inactive: 0.004,inactive: -0.014,inactive: -0.016,inactive: -0.041
HGH1 (UniProt Q9BTY7),inactive: 0.025,inactive: 0.046,inactive: 0.021,inactive: 0.043,inactive: 0.094,inactive: 0.024,inactive: -0.069,inactive: 0.11,inactive: 0.097,inactive: -0.058
HTATIP2 isoform 3 (UniProt Q9BUP3),inactive: -0.047,inactive: 0.036,inactive: -0.07,inactive: -0.037,inactive: -0.006,inactive: 0.038,inactive: 0.05,inactive: 0.01,inactive: -0.066,inactive: -0.045
HK1 isoform 2 (UniProt P19367),inactive: 0.028,inactive: -0.008,inactive: -0.042,inactive: -0.021,inactive: 0.005,inactive: 0.01,inactive: 0.029,inactive: -0.007,inactive: -0.014,inactive: 0.006
HNRNPL (UniProt P14866),inactive: -0.016,inactive: 0.092,inactive: 0.336,–,inactive: 0.104,inactive: 0.007,inactive: -0.15,inactive: 0.086,inactive: -0.022,inactive: -0.206
ICMT (UniProt O60725),inactive: 0.031,inactive: -0.153,inactive: -0.233,inactive: -0.079,inactive: 0.007,–,inactive: -0.034,inactive: 0.022,inactive: -0.013,inactive: -0.016
HMCES (UniProt Q96FZ2),inactive: 0.039,inactive: -0.012,inactive: -0.049,–,inactive: 0.028,–,inactive: 0.039,inactive: -0.114,inactive: -0.207,inactive: -0.133
HRAS (UniProt P01112),inactive: 0.103,inactive: 0.233,inactive: 0.071,active: 0.366,inactive: -0.012,inactive: -0.009,inactive: -0.067,inactive: 0.003,inactive: 0,inactive: 0.007
ICAM5 (UniProt Q9UMF0),inactive: 0.099,inactive: -0.321,inactive: -0.007,inactive: -0.028,inactive: -0.011,–,inactive: 0.13,inactive: 0.004,inactive: -0.016,inactive: 0.11
HNRNPDL (UniProt O14979),inactive: -0.026,inactive: 0.055,inactive: 0.274,inactive: 0.054,inactive: -0.098,inactive: -0.031,inactive: -0.093,inactive: 0.183,inactive: 0.152,inactive: -0.091
HIBADH (UniProt P31937),inactive: 0.019,inactive: 0.017,inactive: 0.021,inactive: -0.003,inactive: -0.005,inactive: 0.005,inactive: 0.011,inactive: -0.026,inactive: 0.095,inactive: -0.029

# Just log2 fold change [10], log2 fold change [2] and log2 fold change [6], for some of the entries so far:
Target | log2 fold change [10] | log2 fold change [2] | log2 fold change [6]
HMCES (UniProt Q96FZ2) | inactive: -0.133 | inactive: -0.012 | –
HRAS (UniProt P01112) | inactive: 0.007 | inactive: 0.233 | inactive: -0.009
